# The list shows a part of the results.
# B1: Eosinophil-derived neurotoxin (EDN) (Homo sapiens), P10153 (protein)
# chain: MVPKLFTSQICLLLLLGLLAVEGSLHVKPPQFTWAQWFETQHINMTSQQCTNAMQVINNYQRRCKNQNTFLLTTFANVVNVCGNPNMTCPSNKTRKNCHHSGSQVPLIHCNLTTPSPQNISNCRYAQTPANMFYIVACDNRDQRRDPPQYPVVPVHLDRII
# Tests used:
# Experiment in all cases: glycan array binding signal (z-score within array); higher = stronger binding
# Settings in all cases: glycan notation: IUPAC condensed, linker removed
# Fuc(a1-2)Gal = target: Fuc(a1-2)Gal
# Outline: (§1)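 Glycan array data were curated from 3228 arrays in the Consortium for Functional Glycomics database and kept only where the protein sequence was available. Glycan names were converted to IUPAC-condensed notation, and columns mapping to the same glycan were averaged. The binding signal is a within-array Z-score, averaged across arrays of the same protein sequence at different concentrations or buffers and across linkers. Negative Z-scores can be read as non-binding.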
# Fuc(a1-2)Gal(b1-3)GalNAc = target: Fuc(a1-2)Gal(b1-3)GalNAc
# Outline: as §1
# [1] = target: Fuc(a1-2)Gal(b1-3)GalNAc(a1-3)[Fuc(a1-2)]Gal(b1-4)Glc
# Outline: as §1
# [2] = target: Fuc(a1-2)Gal(b1-3)GalNAc(a1-3)[Fuc(a1-2)]Gal(b1-4)GlcNAc
# Outline: as §1
# [3] = target: Fuc(a1-2)Gal(b1-3)GalNAc(b1-3)Gal
# Outline: as §1
# [4] = target: Fuc(a1-2)Gal(b1-3)GalNAc(b1-3)Gal(a1-4)Gal(b1-4)Glc
# Outline: as §1
# [5] = target: Fuc(a1-2)Gal(b1-3)GalNAc(b1-4)[Neu5Ac(a2-3)]Gal(b1-4)Glc
# Outline: as §1
# Fuc(a1-2)Gal(b1-3)GlcNAc = target: Fuc(a1-2)Gal(b1-3)GlcNAc
# Outline: as §1
# [6] = target: Fuc(a1-2)Gal(b1-3)GlcNAc(b1-2)Man(a1-3)[Fuc(a1-2)Gal(b1-3)GlcNAc(b1-2)Man(a1-6)]Man(b1-4)GlcNAc(b1-4)GlcNAc
# Outline: as §1
# [7] = target: Fuc(a1-2)Gal(b1-3)GlcNAc(b1-2)Man(a1-3)[Fuc(a1-2)Gal(b1-3)GlcNAc(b1-2)Man(a1-6)]Man(b1-4)GlcNAc(b1-4)[Fuc(a1-6)]GlcNAc
# Outline: as §1
# [8] = target: Fuc(a1-2)Gal(b1-3)GlcNAc(b1-3)Gal(b1-4)Glc
# Outline: as §1
# [9] = target: Fuc(a1-2)Gal(b1-3)GlcNAc(b1-3)GalNAc
# Outline: as §1
# [10] = target: Fuc(a1-2)Gal(b1-3)GlcNAc(b1-3)[Fuc(a1-3)[Gal(b1-4)]GlcNAc(b1-6)]Gal(b1-4)Glc
# Outline: as §1
# [11] = target: Fuc(a1-2)Gal(b1-3)GlcNAc(b1-3)[Gal(b1-4)GlcNAc(b1-6)]Gal(b1-4)Glc
# Outline: as §1
# [12] = target: Fuc(a1-2)Gal(b1-3)GlcNAc(b1-3)[Neu5Ac(a2-6)Gal(b1-4)GlcNAc(b1-6)]Gal(b1-4)Glc
# Outline: as §1
# [13] = target: Fuc(a1-2)Gal(b1-3)[Fuc(a1-4)]GlcNAc
# Outline: as §1
# [14] = target: Fuc(a1-2)Gal(b1-3)[Fuc(a1-4)]GlcNAc(b1-2)Man(a1-3)[Fuc(a1-2)Gal(b1-3)[Fuc(a1-4)]GlcNAc(b1-2)Man(a1-6)]Man(b1-4)GlcNAc(b1-4)GlcNAc
# Outline: as §1
# [15] = target: Fuc(a1-2)Gal(b1-3)[Fuc(a1-4)]GlcNAc(b1-3)[Fuc(a1-3)[Gal(b1-4)]GlcNAc(b1-6)]Gal(b1-4)Glc
# Outline: as §1
# [16] = target: Fuc(a1-2)Gal(b1-3)[Fuc(a1-4)]GlcNAc(b1-3)[Gal(b1-4)GlcNAc(b1-6)]Gal(b1-4)Glc
# Outline: as §1
# Fuc(a1-2)Gal(b1-4)Glc = target: Fuc(a1-2)Gal(b1-4)Glc
# Outline: as §1
# Fuc(a1-2)Gal(b1-4)Glc6S = target: Fuc(a1-2)Gal(b1-4)Glc6S
# Outline: as §1
# Fuc(a1-2)Gal(b1-4)GlcNAc = target: Fuc(a1-2)Gal(b1-4)GlcNAc
# Outline: as §1
# [17] = target: Fuc(a1-2)Gal(b1-4)GlcNAc(b1-2)Man(a1-3)[Fuc(a1-2)Gal(b1-4)GlcNAc(b1-2)Man(a1-6)]Man(b1-4)GlcNAc(b1-4)GlcNAc
# Outline: as §1
# [18] = target: Fuc(a1-2)Gal(b1-4)GlcNAc(b1-2)Man(a1-3)[Fuc(a1-2)Gal(b1-4)GlcNAc(b1-2)Man(a1-6)]Man(b1-4)GlcNAc(b1-4)[Fuc(a1-6)]GlcNAc
# Outline: as §1
# [19] = target: Fuc(a1-2)Gal(b1-4)GlcNAc(b1-2)[Fuc(a1-2)Gal(b1-4)GlcNAc(b1-4)]Man(a1-3)[Fuc(a1-2)Gal(b1-4)GlcNAc(b1-2)Man(a1-6)]Man(b1-4)GlcNAc(b1-4)GlcNAc
# Outline: as §1
# [20] = target: Fuc(a1-2)Gal(b1-4)GlcNAc(b1-3)Gal(b1-4)GlcNAc
# Outline: as §1
# [21] = target: Fuc(a1-2)Gal(b1-4)GlcNAc(b1-3)Gal(b1-4)GlcNAc(b1-3)Gal(b1-4)GlcNAc
# Outline: as §1
# [22] = target: Fuc(a1-2)Gal(b1-4)GlcNAc(b1-3)GalNAc
# Outline: as §1
# [23] = target: Fuc(a1-2)Gal(b1-4)GlcNAc(b1-3)[Fuc(a1-2)Gal(b1-4)GlcNAc(b1-6)]GalNAc
# Outline: as §1
# [24] = target: Fuc(a1-2)Gal(b1-4)GlcNAc6S
# Outline: as §1
# [25] = target: Fuc(a1-2)Gal(b1-4)[Fuc(a1-3)]GlcNAc
# Outline: as §1
# [26] = target: Fuc(a1-2)Gal(b1-4)[Fuc(a1-3)]GlcNAc(b1-2)Man(a1-3)[Fuc(a1-2)Gal(b1-4)[Fuc(a1-3)]GlcNAc(b1-2)Man(a1-6)]Man(b1-4)GlcNAc(b1-4)GlcNAc
# Outline: as §1
# [27] = target: Fuc(a1-2)Gal(b1-4)[Fuc(a1-3)]GlcNAc(b1-2)[Fuc(a1-2)Gal(b1-4)[Fuc(a1-3)]GlcNAc(b1-4)]Man(a1-3)[Fuc(a1-2)Gal(b1-4)[Fuc(a1-3)]GlcNAc(b1-2)Man(a1-6)]Man(b1-4)GlcNAc(b1-4)GlcNAc
# Outline: as §1
# [28] = target: Fuc(a1-2)Gal(b1-4)[Fuc(a1-3)]GlcNAc(b1-3)Gal(b1-4)[Fuc(a1-3)]GlcNAc
# Outline: as §1
# [29] = target: Fuc(a1-2)Gal(b1-4)[Fuc(a1-3)]GlcNAc(b1-3)Gal(b1-4)[Fuc(a1-3)]GlcNAc(b1-3)Gal(b1-4)[Fuc(a1-3)]GlcNAc
# Outline: as §1
# [30] = target: Fuc(a1-2)Gal(b1-4)[Fuc(a1-3)]GlcNAc(b1-3)GalNAc
# Outline: as §1
# Fuc(a1-2)Gal6S(b1-4)Glc = target: Fuc(a1-2)Gal6S(b1-4)Glc
# Outline: as §1
# [31] = target: Fuc(a1-2)Gal6S(b1-4)Glc6S
# Outline: as §1
# [32] = target: Fuc(a1-2)Gal6S(b1-4)GlcNAc
# Outline: as §1
# Fuc(a1-2)[Gal(a1-3)]Gal = target: Fuc(a1-2)[Gal(a1-3)]Gal
# Outline: as §1
# [33] = target: Fuc(a1-2)[Gal(a1-3)]Gal(b1-3)GalNAc
# Outline: as §1
# [34] = target: Fuc(a1-2)[Gal(a1-3)]Gal(b1-3)GlcNAc
# Outline: as §1
# [35] = target: Fuc(a1-2)[Gal(a1-3)]Gal(b1-3)GlcNAc(b1-2)Man(a1-3)[Fuc(a1-2)[Gal(a1-3)]Gal(b1-3)GlcNAc(b1-2)Man(a1-6)]Man(b1-4)GlcNAc(b1-4)GlcNAc
# Outline: as §1
# [36] = target: Fuc(a1-2)[Gal(a1-3)]Gal(b1-3)GlcNAc(b1-2)Man(a1-3)[Fuc(a1-2)[Gal(a1-3)]Gal(b1-3)GlcNAc(b1-2)Man(a1-6)]Man(b1-4)GlcNAc(b1-4)[Fuc(a1-6)]GlcNAc
# Outline: as §1
# [37] = target: Fuc(a1-2)[Gal(a1-3)]Gal(b1-3)GlcNAc(b1-3)GalNAc
# Outline: as §1
binder,measurement,setting,value
B1,glycan array binding signal (z-score),Fuc(a1-2)Gal,0.276
same,glycan array binding signal (z-score),Fuc(a1-2)Gal(b1-3)GalNAc,0.114
same,glycan array binding signal (z-score),[1],0.269
same,glycan array binding signal (z-score),[2],-0.1
same,glycan array binding signal (z-score),[3],-0.44
same,glycan array binding signal (z-score),[4],-0.343
same,glycan array binding signal (z-score),[5],0.404
same,glycan array binding signal (z-score),Fuc(a1-2)Gal(b1-3)GlcNAc,0.082
same,glycan array binding signal (z-score),[6],0.954
same,glycan array binding signal (z-score),[7],-0.615
same,glycan array binding signal (z-score),[8],-0.108
same,glycan array binding signal (z-score),[9],-0.621
same,glycan array binding signal (z-score),[10],-0.037
same,glycan array binding signal (z-score),[11],-0.481
same,glycan array binding signal (z-score),[12],0.344
same,glycan array binding signal (z-score),[13],-0.414
same,glycan array binding signal (z-score),[14],0.095
same,glycan array binding signal (z-score),[15],0.248
same,glycan array binding signal (z-score),[16],-0.979
same,glycan array binding signal (z-score),Fuc(a1-2)Gal(b1-4)Glc,0.35
same,glycan array binding signal (z-score),Fuc(a1-2)Gal(b1-4)Glc6S,-0.126
same,glycan array binding signal (z-score),Fuc(a1-2)Gal(b1-4)GlcNAc,-0.101
same,glycan array binding signal (z-score),[17],0.135
same,glycan array binding signal (z-score),[18],-0.842
same,glycan array binding signal (z-score),[19],-0.611
same,glycan array binding signal (z-score),[20],-0.417
same,glycan array binding signal (z-score),[21],0.354
same,glycan array binding signal (z-score),[22],-0.376
same,glycan array binding signal (z-score),[23],0.014
same,glycan array binding signal (z-score),[24],-0.182
same,glycan array binding signal (z-score),[25],-0.438
same,glycan array binding signal (z-score),[26],-0.67
same,glycan array binding signal (z-score),[27],0.421
same,glycan array binding signal (z-score),[28],0.403
same,glycan array binding signal (z-score),[29],0.022
same,glycan array binding signal (z-score),[30],0.142
same,glycan array binding signal (z-score),Fuc(a1-2)Gal6S(b1-4)Glc,-0.025
same,glycan array binding signal (z-score),[31],-0.374
same,glycan array binding signal (z-score),[32],-0.479
same,glycan array binding signal (z-score),Fuc(a1-2)[Gal(a1-3)]Gal,-0.212
same,glycan array binding signal (z-score),[33],-0.092
same,glycan array binding signal (z-score),[34],-0.099
same,glycan array binding signal (z-score),[35],0.666
same,glycan array binding signal (z-score),[36],0.558
same,glycan array binding signal (z-score),[37],-0.605

# Given bar-delimited: entries from further up.
binder | measurement | setting | value
B1 | glycan array binding signal (z-score) | [23] | 0.014
same | glycan array binding signal (z-score) | [27] | 0.421
same | glycan array binding signal (z-score) | [31] | -0.374
